The other results are listed elsewhere or left out.
What follows are sequences tested against OsWRKY34 (Oryza sativa, UniProt Q0JBA9 1-250) (assay: protein-binding microarray (RPBM); PBS, 2% BSA, 51.3 ng/ul salmon testes DNA, 50 uM zinc acetate, 200 nM TF, 25 C, 1 h; high values mean tight binding). Conditions: protein: recombinant; tags: N-terminal polyhistidine and DsRed monomer fusion (pET32a); label: CyDye5-dUTP incorporated in the synthesized complementary strand; 3' TTTTT single-stranded linker to array surface; dsDNA, one strand shown.
Summary of the method: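 Transcription factors were made in E. coli BL21-CodonPlus as N-terminal fusions to a polyhistidine tag and DsRed, then purified on Ni–NTA. After primer extension with Cy5-dUTP and blocking with 2% BSA, a custom Agilent array was exposed for 1 h at 25 °C to 200 nM protein in PBS, 2% BSA, salmon testes DNA and 50 µM zinc acetate. Washed arrays were scanned on an Axon 4000B, and the binding signal is per-feature fluorescence intensity in arbitrary units.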

Protein sequences, listed by entry. Tags and fused reporters are not part of them.
UniProt Q0JBA9, entry or part of it: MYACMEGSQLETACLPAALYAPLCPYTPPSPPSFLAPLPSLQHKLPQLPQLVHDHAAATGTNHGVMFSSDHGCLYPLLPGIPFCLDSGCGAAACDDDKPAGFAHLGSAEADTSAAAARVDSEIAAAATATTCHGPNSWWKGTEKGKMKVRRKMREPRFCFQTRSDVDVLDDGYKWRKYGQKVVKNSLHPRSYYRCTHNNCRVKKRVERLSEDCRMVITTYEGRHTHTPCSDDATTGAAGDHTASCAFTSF

Sequence | binding signal
TCTGAAACACACGCATAACGCATTGACCGCGATCCGCTCCCGGAGTCACCTAGTGCAG | 9460 fluorescence intensity (a.u.)
TCCAATTTGTCGTGTCAATTCTGAGTTCTTGGCCCATTCACGGAGTCACCTAGTGCAG | 12300 fluorescence intensity (a.u.)
CGTGCATCAACTCTAGCCTTAGTATCCCGCATGATATCTGCGGAGTCACCTAGTGCAG | 9490 fluorescence intensity (a.u.)
ATGCGCATCCTCTTCCTCATCTCTCTCTACCCACGCATGCCGGAGTCACCTAGTGCAG | 8900 fluorescence intensity (a.u.)
GCATATGACCTCCCAACATCTTCTTCCACGCATCCTCCTTCGGAGTCACCTAGTGCAG | 8160 fluorescence intensity (a.u.)
TTATGCAGTCGACTGCACCGTGTGCCATTGTCACTGACATCGGAGTCACCTAGTGCAG | 10800 fluorescence intensity (a.u.)
AGCTTTCTATTTTGGTTTGTTTATAGACTATGTTATGCATCGGAGTCACCTAGTGCAG | 8990 fluorescence intensity (a.u.)
CCTGCTGCTTCTTCGCCACCTGCGCCGAGATCTCCCGCGCCGGAGTCACCTAGTGCAG | 11300 fluorescence intensity (a.u.)
TAACCGCGCCCTCTTTGAACGCGGGAGCTTGGACTTTGACCGGAGTCACCTAGTGCAG | 9020 fluorescence intensity (a.u.)
GGAGTACTGCCGATGCATGGTGGGCTGGGGCTGCTGGGAGCGGAGTCACCTAGTGCAG | 8200 fluorescence intensity (a.u.)
GCTTCACCACACCATGATCCTGCCTCATCTCTGACAGCTCCGGAGTCACCTAGTGCAG | 13600 fluorescence intensity (a.u.)
GCGCAAACCGATCGATCCATCCATCGTCTACCTGTACGTACGGAGTCACCTAGTGCAG | 8440 fluorescence intensity (a.u.)
TAGCAACTCCGTTCTTTTTCTTCTTTTCTCTCACTCACTCCGGAGTCACCTAGTGCAG | 8360 fluorescence intensity (a.u.)
TCTTTCTTCTCCTCGAGTCTGTCGATCTCCCTGCTTTTCCCGGAGTCACCTAGTGCAG | 10100 fluorescence intensity (a.u.)
GGCTCTTAATACCAGTGTATCTACCGGCGCAAGTATCAAACGGAGTCACCTAGTGCAG | 9190 fluorescence intensity (a.u.)
GAGTTCTTTTTTCCCCGTGGCATGGTGACGCCAATGCTTCCGGAGTCACCTAGTGCAG | 8070 fluorescence intensity (a.u.)
CCCAACTACCAAACCAAACTGTTGCATTTGCCGCTGCGACCGGAGTCACCTAGTGCAG | 8520 fluorescence intensity (a.u.)
ATCTTATGGTGTATTTTTTTTTTCTCCGGTGCAGGTTGGTCGGAGTCACCTAGTGCAG | 8260 fluorescence intensity (a.u.)
CTAACCTTCCGTGTCCAACTTTGACTGTCCGTCTTATATGCGGAGTCACCTAGTGCAG | 9050 fluorescence intensity (a.u.)
TGAAATGCATTCTAATTTGCCTTTTCTTTTCTTTTTTTTTCGGAGTCACCTAGTGCAG | 9010 fluorescence intensity (a.u.)
CCGCTCGCCGCTAGCTCTCGCGTCGCCACCGTTTAATCCTCGGAGTCACCTAGTGCAG | 10100 fluorescence intensity (a.u.)

Sequence | binding signal
AATATATTAGGGCATTGTTTAGTTCCAAACTTTTTCTTTACGGAGTCACCTAGTGCAG | 9470 fluorescence intensity (a.u.)
AGCTCTTTTCTGATTTAGATATAATTTTTACGTCGGTTTTCGGAGTCACCTAGTGCAG | 8080 fluorescence intensity (a.u.)
CTGTTTTGTATCTTTTTATTTTTATTTTTTATCCTTTTTTCGGAGTCACCTAGTGCAG | 12200 fluorescence intensity (a.u.)
GATTGTGTCATAGTTCTATAGTTGGAATTTGGTTTATCGTCGGAGTCACCTAGTGCAG | 8080 fluorescence intensity (a.u.)
TTATGGAAGTCGGACTAAACGGACTTCTTTTTTGTTTTTTCGGAGTCACCTAGTGCAG | 8580 fluorescence intensity (a.u.)
CATTCGTTTGTTTTGCTTGCATGGAGTTTTGGATTAACACCGGAGTCACCTAGTGCAG | 10200 fluorescence intensity (a.u.)
GTTGTTGACTTTTTAAAATTTGTTTGACCATTCATCTTATCGGAGTCACCTAGTGCAG | 23100 fluorescence intensity (a.u.)
GGGCTTCCCGTGGACCGCGCCCACCCGCGCCGGCCTCACGCGGAGTCACCTAGTGCAG | 8220 fluorescence intensity (a.u.)
GTTTTTTCTTCTTTTTTTTTTACGGGACCACTTTTTTTTTCGGAGTCACCTAGTGCAG | 13400 fluorescence intensity (a.u.)
TGCATGAAACACTTAATCTTTATCTTCATCTTCATTTTCACGGAGTCACCTAGTGCAG | 9030 fluorescence intensity (a.u.)
GTGGGTACTTAGTGTTAGTGTTGTCGTGCGTTATCCATGTCGGAGTCACCTAGTGCAG | 13900 fluorescence intensity (a.u.)
ACAAGTCCAAAACACCTTTCTTTGACTTCACACTATTCTTCGGAGTCACCTAGTGCAG | 12500 fluorescence intensity (a.u.)
TATTCCTGTCAGAATCCTATGTTTTTCTTATTCCTCCGTTCGGAGTCACCTAGTGCAG | 9210 fluorescence intensity (a.u.)
CATTCTTGTACTTCTTCTGTACAGTTCCTTTTGGTTAATTCGGAGTCACCTAGTGCAG | 10700 fluorescence intensity (a.u.)
TTGGACTCTTTTCTCCATCTCTCATTTTCACACTGGGTCCCGGAGTCACCTAGTGCAG | 9210 fluorescence intensity (a.u.)
TGAAACAAAATTGAGGTTGTTGGGAGGGTTTCTGATCATCCGGAGTCACCTAGTGCAG | 10600 fluorescence intensity (a.u.)
CACGTCGGTTGTGCTGGTAGTTGCCACTGTCCTCATCGTCCGGAGTCACCTAGTGCAG | 10100 fluorescence intensity (a.u.)
ACAGGCCCAGTAGCACTCTTTCTGTCACTCACTCACTCACCGGAGTCACCTAGTGCAG | 9250 fluorescence intensity (a.u.)
GACAAGCGTGGTGAAGTGGTGGGGAGTTGCGGGAGGGAGGCGGAGTCACCTAGTGCAG | 14600 fluorescence intensity (a.u.)
CAAACGGGTCCGCGCCGTTCCTGCCTCGCTGCCGCCTGCCCGGAGTCACCTAGTGCAG | 10100 fluorescence intensity (a.u.)
TGGATTTATTTATTCTTGTTCTTTTTCTCGAAAATTTCCACGGAGTCACCTAGTGCAG | 8640 fluorescence intensity (a.u.)

— article PMC7819943, “Rice protein-binding microarrays: a tool to detect cis-acting elements near promoter regions in rice”
